Values from PubChem BioAssay AID743454 (Peter MacCallum Cancer Centre, 2014).

- Screen: 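Knock-downs lowering viability or raising caspase 3/7 activity in vorinostat-treated resistant cells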 (primary screen)
- Cells: human HCT116-VR colon cancer cells, selected for vorinostat resistance
- Knock-down reagent: siRNA pool against human genes, 40 nM siRNA pool
- Time to read-out: vorinostat for 24 h, read-out about 72 h after transfection
- Challenge: vorinostat at 2.5 µM final
- Measured: 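Two measures, CellTiter-Fluor viability and luminescent caspase 3/7 activity, each as fold change against same-plate mock wells, mean of duplicates, then screen-wide robust z-score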
- Reading the numbers: viability robust z-score: higher = more viable cells than screen typical; caspase robust z-score: higher = more caspase 3/7 activity than screen typical
- Active means: 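a knock-down is a hit when classed RV1 or RV2 for lowered viability, or CA1 or CA2 for caspase activation; those lethal without drug were dropped; hits were retested singly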
Here is an unselected part of about 18,000 deposited reagents. Over the whole deposit, 450 (2.5%) were called active. 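Single biological run; no consistent viability z cut-off exists, so the class columns, not z-scores, define the calls.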

Gene | viability hit class | caspase hit class | viability robust z-score | caspase robust z-score | outcome
NOL6 | no change | no change | -2.6 | -0.94 | inactive
TNFRSF13C | no change | no change | -0.98 | 0.16 | inactive
WDR45 | no change | no change | -0.13 | -0.94 | inactive
TP53 | no change | no change | -0.28 | -0.07 | inactive
TIAL1 | no change | no change | -0.89 | 1.97 | inactive
LHX8 | no change | no change | -1.21 | 0.34 | inactive
ATP13A5 | no change | no change | -1.81 | -0.64 | inactive
KRTAP27-1 | no change | CA2 (caspase activation) | -1.18 | 5.94 | active
KLK8 | no change | no change | 1.07 | -0.72 | inactive
KCNE5 | no change | no change | -0.98 | 1.42 | inactive
IGSF21 | no change | no change | 0.33 | -0.65 | inactive
CCNF | no change | no change | 0.54 | 0.86 | inactive
BIN2 | no change | no change | 0.43 | 1.14 | inactive
SLC26A4 | no change | no change | 0.51 | -0.82 | inactive
EPS8 | no change | no change | -0.16 | -0.51 | inactive
OTULIN | no change | no change | -0.44 | -0.42 | inactive
CT45A2 | no change | no change | -0.16 | 0.76 | inactive
OASL | no change | no change | -1.33 | 1.08 | inactive
APC2 | no change | no change | -0.1 | -0.92 | inactive
CD180 | no change | no change | -1.18 | 2.9 | inactive
CAPN15 | no change | no change | -0.96 | 1.57 | inactive
ANP32D | no change | no change | -1.04 | -0.01 | inactive
AUH | no change | no change | -0.94 | 0.28 | inactive
